PubChem BioAssay AID652243, Drosophila RNAi Screening Center | 2013
In all, the deposit lists about 24,000 reagents; below is an unselected part of those that have a named target and a result. Over the whole deposit, 246 (1%) got an active call. 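Plates not normalised; calls are printed but the firefly/Renilla ratio behind them is not deposited; fold cut for lowering reported inconsistently.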 The raw values are shown without normalisation. Names joined by + are all predicted targets of the reagent. Not stated in the record: the amount of reagent.

Test: 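Fly genes required for human androgen receptor driven transcription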 (primary screen)
Cell system: Drosophila S2R+ cells
Reagents: long dsRNA against Drosophila genes
Time to read-out: 72 h (48 h, then 24 h hormone)
Challenge: synthetic androgen R1881 at 10 nM for 24 h
Read-out: 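Firefly light from an androgen-responsive reporter and Renilla control light per well, raw and unnormalised, for each of two replicates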
Reading the numbers: firefly reporter light: higher = more light from androgen-responsive reporter; Renilla control light: higher = more constitutive control signal (cell number, transfection)
Call rule: 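Across duplicate plates, a knock-down whose log firefly/Renilla ratio shifted a set fold down or up from the GFP/LacZ control mean was a hit; the downward cut appears as both 1.5 and 3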
Meaning of the calls: active = hit: reporter lowered or raised; inactive = no hit

gene knocked down	dsRNA	firefly reporter light, replicate 1	firefly reporter light, replicate 2	Renilla control light, replicate 1	Renilla control light, replicate 2	Outcome
spi (spitz)	DRSC03618	1.50e5	70641	1.46e6	9.38e5	inactive
spi (spitz)	DRSC29414	5.44e5	6.99e5	1.34e6	1.34e6	inactive
dop (drop out)	DRSC10655	95052	84940	8.96e5	5.67e5	inactive
dop (drop out)	DRSC29525	3.46e5	2.71e5	7.96e5	7.96e5	inactive
dop (drop out)	DRSC37067					inactive
CG13067	DRSC09950	2.45e5	2.84e5	2.39e6	1.98e6	inactive
CG4210	DRSC15551	1.44e5	1.95e5	2.28e6	2.84e6	inactive
CG4210	DRSC27388	2.40e5	3.05e5	7.68e5	6.46e5	inactive
pigeon	DRSC03565	1.12e6	8.22e5	6.23e5	1.13e6	inactive
s-cup (stanley-cup)	DRSC06277	1.84e5	1.29e5	1.31e6	1.06e6	inactive
s-cup (stanley-cup)	DRSC06278	4.09e5	1.78e5	1.38e6	1.46e6	inactive
s-cup (stanley-cup)	DRSC24270	6.32e5	9.02e5	9.59e5	7.63e5	inactive
mRpL43 (mitochondrial ribosomal protein L43)	DRSC04508	2.61e5	2.75e5	1.28e6	2.22e6	inactive
mRpL43 (mitochondrial ribosomal protein L43)	DRSC22571	6.89e5	5.29e5	2.19e6	1.82e6	inactive
HSPBAP1 (HSPB1 associated protein 1)	DRSC14567	2.78e5	2.34e5	2.60e6	3.05e6	inactive
Naa15-16 (N(alpha)-acetyltransferase 15/16)	DRSC19440	4.24e5	4.41e5	2.39e6	3.11e6	inactive
Naa15-16 (N(alpha)-acetyltransferase 15/16)	DRSC22846	5.24e5	8.56e5	3.18e5	4.72e5	inactive
Cyp313a4 (Cytochrome P450 313a4)	DRSC16627	32429	41543	7.91e5	1.08e6	inactive
DAAM (Dishevelled Associated Activator of Morphogenesis)	DRSC18479	3.81e5	4.41e5	2.20e6	3.11e6	inactive
PH4alphaPV (prolyl-4-hydroxylase-alpha PV)	DRSC22400	5.11e5	6.46e5	1.57e6	2.05e6	inactive
PH4alphaPV (prolyl-4-hydroxylase-alpha PV)	DRSC28020	5.92e5	5.96e5	1.38e6	1.20e6	inactive
FeCH (Ferrochelatase)	DRSC16948	86254	89752	1.13e6	7.92e5	inactive
FeCH (Ferrochelatase)	DRSC27562	2.18e5	2.28e5	5.20e5	8.85e5	inactive
asRNA:Eig63F-2 + Eip63F-1	DRSC21446	6.25e5	5.67e5	1.38e6	1.16e6	inactive
Dcp-1 (Death caspase-1)	DRSC04609	7.60e5	7.23e5	2.01e6	1.82e6	inactive
dgt3 (dim gamma-tubulin 3)	DRSC04349	9.75e5	7.93e5	1.64e6	1.94e6	inactive
CG31064	DRSC14756	2.41e5	1.61e5	2.37e6	2.86e6	inactive
CG31064	DRSC15941	1.42e5	95389	2.10e6	1.98e6	inactive
CG31064	DRSC15942	1.13e5	1.09e5	1.59e6	2.26e6	inactive
CG31064	DRSC15943	38687	49393	9.86e5	1.54e6	active
azot (ahuizotl)	DRSC06051	2.42e5	2.53e5	1.30e6	1.48e6	inactive
azot (ahuizotl)	DRSC25443	1.33e6	1.62e6	8.65e5	9.86e5	inactive
brv2 (brivido-2)	DRSC10226	2.41e5	1.43e5	2.02e6	1.38e6	inactive
brv2 (brivido-2)	DRSC29796	6.53e5	4.79e5	1.49e6	1.50e6	inactive
CG17739	DRSC06689	1.13e6	1.21e6	1.98e6	1.87e6	inactive
CG17739	DRSC26518	2.32e5	2.20e5	5.75e5	5.92e5	inactive
HUWE1	DRSC20089	7.42e5	6.52e5	4.07e6	3.40e6	inactive
CG1688	DRSC23207	5.46e5	4.93e5	1.53e6	1.66e6	inactive
Paip1 (Poly(A) binding protein interacting protein 1)	DRSC07302	1.60e5	1.01e5	5.40e5	5.09e5	inactive
Paip1 (Poly(A) binding protein interacting protein 1)	DRSC23561	7.03e5	1.11e6	8.60e5	1.12e6	inactive
CG15404	DRSC00418	1.51e5	1.39e5	1.18e6	8.95e5	inactive
Schip1 (Schwannomin interacting protein 1)	DRSC02851	2.73e5	3.01e5	1.63e6	1.15e6	inactive
Schip1 (Schwannomin interacting protein 1)	DRSC28775	7.02e5	9.16e5	1.20e6	1.25e6	inactive

Records above with an active call:
gene knocked down	dsRNA	firefly reporter light, replicate 1	firefly reporter light, replicate 2	Renilla control light, replicate 1	Renilla control light, replicate 2	Outcome
CG31064	DRSC15943	38687	49393	9.86e5	1.54e6	active

More results follow:
gene knocked down	dsRNA	firefly reporter light, replicate 1	firefly reporter light, replicate 2	Renilla control light, replicate 1	Renilla control light, replicate 2	Outcome
CSN6 (COP9 signalosome subunit 6)	DRSC16593	2.04e5	1.78e5	1.99e6	1.61e6	inactive
NC2beta (Negative Cofactor 2beta)	DRSC01895	1.12e6	6.60e5	1.75e6	1.72e6	inactive
NC2beta (Negative Cofactor 2beta)	DRSC25346	4.38e5	5.80e5	2.47e5	2.42e5	inactive
NitFhit (Nitrilase and fragile histidine triad fusion protein)	DRSC08680	83898	86486	1.55e6	1.85e6	inactive
NitFhit (Nitrilase and fragile histidine triad fusion protein)	DRSC28018	7.27e5	4.14e5	2.11e6	1.41e6	inactive
CG15278	DRSC02481	1.63e5	1.83e5	1.89e6	2.18e6	inactive
Lcch3 (Ligand-gated chloride channel homolog 3)	DRSC22175	1.11e6	8.01e5	1.98e6	1.86e6	inactive
CG43335	DRSC15764	1.57e5	1.55e5	2.70e6	2.84e6	inactive
CG43335	DRSC22671	5.56e5	4.65e5	1.76e6	2.19e6	inactive
CG9119	DRSC08620	1.01e6	9.67e5	1.30e6	1.31e6	inactive
CG9119	DRSC25290	5.63e5	8.90e5	7.90e5	1.19e6	inactive
Zip99C (Zinc/iron regulated transporter-related protein 99C)	DRSC16320	1.13e5	97013	7.98e5	5.46e5	inactive
CG34445	DRSC22404	2.77e5	5.47e5	4.17e5	5.10e5	inactive
Irk2 (Inwardly rectifying potassium channel 2)	DRSC15569	73917	1.14e5	7.42e5	6.83e5	inactive
Mdr50 (Multi drug resistance 50)	DRSC07467	1.03e5	1.23e5	1.79e6	1.79e6	inactive
Mdr50 (Multi drug resistance 50)	DRSC23705	4.65e5	2.43e5	4.59e5	4.71e5	inactive
CG12920	DRSC06234	1.75e5	2.13e5	1.08e6	7.57e5	inactive
Pex1 (Peroxin 1)	DRSC11358	1.30e6	1.11e6	1.44e6	1.10e6	inactive
Rrp46	DRSC15537	1.41e5	1.21e5	2.54e6	1.73e6	inactive
CG9626	DRSC16525	63626	54019	5.27e5	4.45e5	inactive
CG9626	DRSC27021	4.56e5	3.38e5	7.20e5	2.56e5	inactive
CG3335	DRSC10358	1.47e5	1.66e5	2.64e6	1.86e6	inactive
CG3335	DRSC29982	7.56e5	7.06e5	1.54e6	1.64e6	inactive
saturn	DRSC09303	3.52e5	3.87e5	5.82e5	7.69e5	inactive
saturn	DRSC28436	5.03e5	8.33e5	6.86e5	1.63e6	inactive
TBPH (TAR DNA-binding protein-43 homolog)	DRSC04660	5.54e5	8.02e5	1.06e6	1.56e6	inactive
TBPH (TAR DNA-binding protein-43 homolog)	DRSC28032	8.94e5	9.11e5	1.90e6	1.89e6	inactive
CG4822	DRSC00669	1.04e6	1.06e6	3.67e6	1.90e6	inactive
d4	DRSC04881	1.08e6	3.53e5	2.08e6	7.42e5	inactive
d4	DRSC22674	7.61e5	5.53e5	1.60e6	1.48e6	inactive
d4	DRSC26581	2.51e5	2.17e5	4.51e5	2.88e5	inactive
